Results published in paper PMC7457484.
These are yes or no findings as the source states them, for the method shown. In cells and extracts the contact can be indirect. These calls come from enrichment with a bait or labelling near it, and not all partners need be listed.

Amino acid sequences for entries named in this document (tags omitted).
UniProt O95071: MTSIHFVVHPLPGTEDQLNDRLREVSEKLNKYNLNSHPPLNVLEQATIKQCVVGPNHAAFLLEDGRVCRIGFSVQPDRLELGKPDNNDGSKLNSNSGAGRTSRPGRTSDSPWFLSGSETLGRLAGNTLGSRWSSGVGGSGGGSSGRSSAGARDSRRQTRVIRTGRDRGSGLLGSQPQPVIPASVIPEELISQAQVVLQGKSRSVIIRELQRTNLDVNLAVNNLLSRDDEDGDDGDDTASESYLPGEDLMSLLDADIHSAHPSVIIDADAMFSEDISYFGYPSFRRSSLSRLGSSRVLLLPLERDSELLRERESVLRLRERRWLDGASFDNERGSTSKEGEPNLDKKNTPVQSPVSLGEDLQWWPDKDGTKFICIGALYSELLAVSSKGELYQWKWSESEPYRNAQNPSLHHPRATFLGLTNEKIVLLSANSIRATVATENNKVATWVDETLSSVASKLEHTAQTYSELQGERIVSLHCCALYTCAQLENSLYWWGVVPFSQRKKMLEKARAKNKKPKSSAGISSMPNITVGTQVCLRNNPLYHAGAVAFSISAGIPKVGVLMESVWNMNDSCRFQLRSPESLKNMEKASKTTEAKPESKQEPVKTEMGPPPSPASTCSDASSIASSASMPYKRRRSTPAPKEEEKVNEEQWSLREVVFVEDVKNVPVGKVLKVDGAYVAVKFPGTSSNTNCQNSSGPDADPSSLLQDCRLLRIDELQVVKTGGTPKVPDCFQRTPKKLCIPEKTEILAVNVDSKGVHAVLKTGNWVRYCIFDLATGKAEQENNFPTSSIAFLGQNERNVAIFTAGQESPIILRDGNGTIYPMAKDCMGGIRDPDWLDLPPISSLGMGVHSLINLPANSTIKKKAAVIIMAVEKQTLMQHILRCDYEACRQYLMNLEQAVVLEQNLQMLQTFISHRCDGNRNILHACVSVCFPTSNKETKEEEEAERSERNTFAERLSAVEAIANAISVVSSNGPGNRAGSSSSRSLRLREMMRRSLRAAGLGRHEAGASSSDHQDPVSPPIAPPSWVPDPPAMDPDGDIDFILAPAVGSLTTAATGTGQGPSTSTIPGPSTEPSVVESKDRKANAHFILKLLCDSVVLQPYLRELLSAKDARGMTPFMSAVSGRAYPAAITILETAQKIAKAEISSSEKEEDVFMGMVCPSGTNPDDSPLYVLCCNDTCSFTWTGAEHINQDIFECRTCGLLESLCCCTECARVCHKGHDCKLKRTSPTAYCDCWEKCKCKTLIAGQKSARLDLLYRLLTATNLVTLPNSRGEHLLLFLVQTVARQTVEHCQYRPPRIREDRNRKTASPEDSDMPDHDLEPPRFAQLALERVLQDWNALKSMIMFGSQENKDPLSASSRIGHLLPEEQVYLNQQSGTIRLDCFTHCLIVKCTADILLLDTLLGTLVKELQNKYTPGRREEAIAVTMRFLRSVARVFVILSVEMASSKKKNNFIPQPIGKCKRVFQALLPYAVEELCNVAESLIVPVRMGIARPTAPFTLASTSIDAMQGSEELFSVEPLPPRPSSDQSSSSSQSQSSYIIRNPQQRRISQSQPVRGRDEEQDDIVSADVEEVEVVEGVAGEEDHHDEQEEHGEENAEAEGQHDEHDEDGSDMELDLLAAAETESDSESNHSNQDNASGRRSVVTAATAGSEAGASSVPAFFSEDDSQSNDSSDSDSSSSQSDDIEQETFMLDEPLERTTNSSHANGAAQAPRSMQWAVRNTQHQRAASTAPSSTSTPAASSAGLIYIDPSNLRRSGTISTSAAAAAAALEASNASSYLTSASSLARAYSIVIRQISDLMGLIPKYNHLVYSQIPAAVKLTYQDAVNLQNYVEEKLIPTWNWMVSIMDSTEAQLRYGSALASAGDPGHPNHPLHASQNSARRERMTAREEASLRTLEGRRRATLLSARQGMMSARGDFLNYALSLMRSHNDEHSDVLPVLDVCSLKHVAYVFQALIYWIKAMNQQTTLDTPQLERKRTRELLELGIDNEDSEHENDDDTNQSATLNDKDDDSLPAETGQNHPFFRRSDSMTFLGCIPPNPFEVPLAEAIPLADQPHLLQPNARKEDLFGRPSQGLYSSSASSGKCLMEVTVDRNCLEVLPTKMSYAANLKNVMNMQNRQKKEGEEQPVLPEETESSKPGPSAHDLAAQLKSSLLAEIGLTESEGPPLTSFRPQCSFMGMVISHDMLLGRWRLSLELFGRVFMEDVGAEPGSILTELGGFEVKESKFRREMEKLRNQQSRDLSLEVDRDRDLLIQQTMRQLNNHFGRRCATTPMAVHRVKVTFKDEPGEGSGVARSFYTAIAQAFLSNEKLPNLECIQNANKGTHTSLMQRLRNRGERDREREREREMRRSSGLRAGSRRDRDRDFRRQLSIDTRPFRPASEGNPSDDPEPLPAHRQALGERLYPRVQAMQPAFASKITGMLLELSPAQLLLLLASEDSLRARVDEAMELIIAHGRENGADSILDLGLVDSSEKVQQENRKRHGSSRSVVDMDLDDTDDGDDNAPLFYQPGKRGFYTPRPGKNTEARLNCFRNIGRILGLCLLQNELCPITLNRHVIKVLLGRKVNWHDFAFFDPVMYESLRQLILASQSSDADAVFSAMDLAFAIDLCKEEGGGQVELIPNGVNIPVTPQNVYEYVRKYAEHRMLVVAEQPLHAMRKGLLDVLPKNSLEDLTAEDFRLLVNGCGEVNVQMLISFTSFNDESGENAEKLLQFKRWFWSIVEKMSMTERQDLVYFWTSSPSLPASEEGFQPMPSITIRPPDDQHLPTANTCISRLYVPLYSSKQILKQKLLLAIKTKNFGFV
UniProt Q92616: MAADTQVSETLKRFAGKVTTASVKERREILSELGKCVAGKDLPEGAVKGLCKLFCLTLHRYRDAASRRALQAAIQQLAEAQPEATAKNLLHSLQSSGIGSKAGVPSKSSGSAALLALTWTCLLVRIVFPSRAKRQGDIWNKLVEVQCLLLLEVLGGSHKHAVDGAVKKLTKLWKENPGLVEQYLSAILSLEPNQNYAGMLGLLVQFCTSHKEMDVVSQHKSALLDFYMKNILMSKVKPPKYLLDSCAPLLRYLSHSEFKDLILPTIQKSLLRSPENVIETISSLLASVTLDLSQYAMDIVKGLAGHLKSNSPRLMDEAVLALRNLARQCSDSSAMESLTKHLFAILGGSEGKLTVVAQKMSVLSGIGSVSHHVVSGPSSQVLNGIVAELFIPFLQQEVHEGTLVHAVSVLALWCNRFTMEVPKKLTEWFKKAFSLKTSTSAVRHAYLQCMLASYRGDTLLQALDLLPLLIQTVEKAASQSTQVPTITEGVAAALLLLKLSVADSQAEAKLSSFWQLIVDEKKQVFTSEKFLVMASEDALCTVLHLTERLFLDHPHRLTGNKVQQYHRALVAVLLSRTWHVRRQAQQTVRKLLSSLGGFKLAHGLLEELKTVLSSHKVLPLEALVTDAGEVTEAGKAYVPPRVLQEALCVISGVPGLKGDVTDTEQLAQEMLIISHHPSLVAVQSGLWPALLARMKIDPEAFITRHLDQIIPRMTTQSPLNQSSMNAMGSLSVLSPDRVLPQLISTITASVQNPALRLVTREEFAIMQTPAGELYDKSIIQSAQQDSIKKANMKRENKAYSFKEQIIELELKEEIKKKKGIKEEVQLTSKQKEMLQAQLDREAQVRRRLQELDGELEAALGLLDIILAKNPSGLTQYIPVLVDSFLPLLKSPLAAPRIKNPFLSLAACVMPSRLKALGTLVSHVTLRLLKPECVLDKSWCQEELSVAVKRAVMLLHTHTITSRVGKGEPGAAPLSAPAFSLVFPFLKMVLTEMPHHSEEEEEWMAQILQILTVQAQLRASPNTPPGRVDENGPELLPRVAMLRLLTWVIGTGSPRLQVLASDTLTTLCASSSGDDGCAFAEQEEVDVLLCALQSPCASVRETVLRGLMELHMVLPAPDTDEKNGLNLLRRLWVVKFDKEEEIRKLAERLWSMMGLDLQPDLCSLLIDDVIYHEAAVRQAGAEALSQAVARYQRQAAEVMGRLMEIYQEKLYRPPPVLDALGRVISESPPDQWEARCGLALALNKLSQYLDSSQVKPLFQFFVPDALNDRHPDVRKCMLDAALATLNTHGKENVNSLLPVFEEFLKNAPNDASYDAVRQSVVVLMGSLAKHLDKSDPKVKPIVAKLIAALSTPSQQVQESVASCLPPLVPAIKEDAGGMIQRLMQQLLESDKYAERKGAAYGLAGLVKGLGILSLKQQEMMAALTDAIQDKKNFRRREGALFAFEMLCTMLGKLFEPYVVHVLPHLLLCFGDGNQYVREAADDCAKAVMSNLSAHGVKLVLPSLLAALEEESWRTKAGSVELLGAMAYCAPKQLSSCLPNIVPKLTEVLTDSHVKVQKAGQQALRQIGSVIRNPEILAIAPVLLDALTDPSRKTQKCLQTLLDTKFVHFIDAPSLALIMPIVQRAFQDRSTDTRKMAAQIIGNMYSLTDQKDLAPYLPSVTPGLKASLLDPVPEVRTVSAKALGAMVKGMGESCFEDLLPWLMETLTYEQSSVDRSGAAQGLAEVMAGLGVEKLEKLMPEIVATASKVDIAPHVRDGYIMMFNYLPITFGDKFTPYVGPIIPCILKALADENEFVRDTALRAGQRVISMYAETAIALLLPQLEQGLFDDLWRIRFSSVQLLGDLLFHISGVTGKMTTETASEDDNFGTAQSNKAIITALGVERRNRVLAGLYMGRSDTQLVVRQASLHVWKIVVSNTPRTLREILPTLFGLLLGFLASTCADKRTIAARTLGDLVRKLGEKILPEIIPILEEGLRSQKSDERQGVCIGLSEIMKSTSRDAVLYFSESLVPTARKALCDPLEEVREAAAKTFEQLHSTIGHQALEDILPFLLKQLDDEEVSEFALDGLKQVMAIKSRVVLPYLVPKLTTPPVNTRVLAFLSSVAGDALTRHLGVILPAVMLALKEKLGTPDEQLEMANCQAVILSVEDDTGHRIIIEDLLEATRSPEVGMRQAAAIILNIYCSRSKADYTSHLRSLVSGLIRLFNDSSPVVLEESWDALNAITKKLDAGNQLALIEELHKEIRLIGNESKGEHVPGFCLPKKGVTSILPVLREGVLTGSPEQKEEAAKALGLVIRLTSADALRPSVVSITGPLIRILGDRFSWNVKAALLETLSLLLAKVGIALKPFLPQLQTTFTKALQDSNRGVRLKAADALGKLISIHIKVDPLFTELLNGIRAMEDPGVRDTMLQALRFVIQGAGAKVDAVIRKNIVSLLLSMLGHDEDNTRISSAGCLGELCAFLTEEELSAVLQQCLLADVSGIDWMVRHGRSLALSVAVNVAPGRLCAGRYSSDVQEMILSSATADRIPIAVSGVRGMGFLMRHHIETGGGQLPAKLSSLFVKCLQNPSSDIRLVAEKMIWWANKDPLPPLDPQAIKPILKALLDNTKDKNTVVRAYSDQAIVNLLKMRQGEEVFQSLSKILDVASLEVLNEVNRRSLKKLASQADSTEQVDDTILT

Biological target: FLAG-tagged UBR5 (human) (UniProt O95071)
Assay: affinity purification with mass spectrometry; HEK293T transiently transfected in triplicate with FLAG-UBR5 or FLAG alone (control); 1% CHAPS lysis buffer; anti-FLAG beads, washed, competed off with FLAG peptides in molar excess; mass spectrometry

**Q.** How did the binding turn out when GCN1L1 (from UniProt Q92616 1-2671) was run?
**A.** binds
